Values from PubChem BioAssay AID652238 (Broad Institute, 2013)

Test: 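Target check: knock-down effect on ATP in cytokine-exposed insulin-secreting cells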
System: rat INS-1E insulinoma beta cells
Knock-down reagent: siRNA against rat genes, 6.25 to 100 nM siRNA; scrambled control at 100 nM
Time to read-out: 72 h transfection, then 48 h cytokines (about 120 h total)
Challenge: cytokine mix: IL-1 beta 10 ng/mL, TNF-alpha 25 ng/mL, IFN-gamma 50 ng/mL, for 48 h
Read-out: 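Luminescent cellular ATP, given as percent prevention of the cytokine-caused ATP fall, scaled from cytokine-treated scrambled control (0%) to untreated scrambled control (100%)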
Scale: ATP loss blocked, 100 nM: higher = stronger protection from cytokine-induced ATP loss
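One siRNA at five doses; scrambled control at 100 nM; the deposited percent formula has misplaced brackets.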 Not all columns of the deposit are shown.

Usp9x — ATP loss blocked, 100 nM (%): 85
